Earlier results in patent US7482030B2, “Natural herb composition for the treatment of diabetes and manufacturing method thereof” (priority 2007, dated 2009).
At least one compound was matched to its structure with a doubt left.

Tested on: human tumor cells

In the case of `COc1cccc(CCc2cc(OC)c(O)c3c2C(Cc2cccc(OC)c2)c2cc(O)c(O)c(OC)c2O3)c1` (stereo not shown) [Nobiline], the “in vitro anti-tumoral activity” value is listed as “exhibit in vitro anti-tumoral activity against human tumor cells”.
